Measured values from PubChem BioAssay AID2685 (National Center for Advancing Translational Sciences (NCATS), 2010).
This is one part of the list. Further columns of the screen follow, without active or inactive calls. The list favours compounds with an active or inconclusive main result. Potencies come from curve fits of mixed quality, noted in brackets.

Experiment: qHTS Assay for Lipid Storage Modulators in Drosophila S3 Cells;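 for cell number change: cells counted by Cell Tracker Red CMTPX staining in the red channel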
Conditions: BODIPY lipid droplet fluorescence, 18-24 h; for cell number change: measured here: cell count max response, cells fed with added oleic acid
Method in brief: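 Drosophila S3 cells got compounds at several concentrations plus oleic acid (400 uM solution). Laser-scanning cytometry with 488 nm excitation read lipid droplets at 500-530 nm and cells at 575-640 nm. Percent activity was relative to 20 uM Triacsin C.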

[1] = measured here: lipid fluorescence (Fed channel) AC50, cells fed with added oleic acid
[2] = measured here: cell number channel AC50, cells fed with added oleic acid

| SMILES | cell number change [%] | AC50 [1] | AC50 [2] |
| --- | --- | --- | --- |
| N#Cc1cc2ccccc2nc1SCC(=O)Nc1ccc(S(=O)(=O)N2CCCC2)cc1 | -2.17 | 1.03 µM [rising, partial curve] |  |
| CC(C(=O)Nc1sc2c(c1C(=O)NCc1ccco1)CCCC2)N1C(=O)c2ccccc2C1=O (centres undefined) | 51.1 | 4.11 µM [rising, partial curve] | 1.84 µM [rising, full curve] |
| Cc1ccc(/C=C/C(=O)Nc2nccs2)o1 | -14.3 |  |  |
| CCn1c(SCC(=O)n2c(C)c(C)c3ccccc32)nnc1-c1ccco1 | -36.7 | 1.16 µM [falling, full curve] | 29.1 µM [falling, partial curve, poor fit] |
| O=C(c1ccccc1)c1ccc(Cn2cc(-c3ccccc3)nn2)cc1 | -15.9 | 0.184 µM [falling, full curve, poor fit] |  |
| O=C(CCC(=O)N1CCOc2ccccc21)N1CCOCC1 | -2.88 | 0.00411 µM [rising, full curve, poor fit] |  |
| CN(CC(=O)Nc1ccc(Cl)c(C(F)(F)F)c1)C(=O)c1ccc2c(c1)NC(=O)CS2 | -10.7 | 2.06 µM [falling, partial curve, poor fit] | 0.291 µM [falling, partial curve, poor fit] |
| CC1(C)Oc2ccc3ccc(=O)oc3c2/C(=C/NCCO)C1=O | -19 | 29.1 µM [rising, single point] |  |
| S=c1nc(-c2cc(Cl)ccc2Cl)[nH][nH]1 | 11.9 | 0.58 µM [falling, single point] |  |
| Cc1cc(C)cc(N(CC(=O)N2CCn3c2nc2ccccc23)S(=O)(=O)c2c(C)noc2C)c1 | 45.3 | 29.1 µM [rising, partial curve] | 29.1 µM [rising, single point] |
| Cc1cccc(Cn2nc(C(C)(C)C)cc2C(=O)N2CCOCC2)c1 | -5.56 |  |  |
| CCOc1ccc(-c2n[nH]c(C(=O)NN)c2C)cc1 |  | 1.64 µM [falling, partial curve, poor fit] |  |
| CC(=O)c1cccc(NCC(=O)N2CCN(S(=O)(=O)c3ccccc3)CC2)c1 | -29.5 | 29.1 µM [falling, single point] |  |
| O=C(Nc1ccc(NC(=O)c2cccnc2)cc1)c1ccccc1 | 2.56 | 0.103 µM [falling, full curve, poor fit] |  |
| O=C(NCCCn1ccnc1)c1cn(Cc2ccc(F)cc2)nn1 | 75.2 | 18.4 µM [rising, partial curve] | 9.2 µM [rising, partial curve] |
| CCn1c(=O)c(C(=O)NC(C)C)c(O)c2ccccc21 | -3.7 | 6.51 µM [rising, single point] |  |
| CCN(CC(=O)Nc1c(F)cccc1F)C(=O)CCC(=O)c1ccc(F)cc1 | -20.8 |  |  |
| O=C(Nc1ccc2c(c1)OCCO2)c1cc2sccc2n1Cc1ccccc1 | -46.5 | 1.64 µM [falling, partial curve] | 3.66 µM [falling, full curve] |
| CC1(C)CC(N=Cc2c(O)n(Cc3ccc4c(c3)OCO4)c(=O)c3ccccc23)CC(C)(C)N1 | -37.7 |  | 32.6 µM [falling, single point] |

| SMILES | cell number change [%] | AC50 [1] | AC50 [2] |
| --- | --- | --- | --- |
| COc1cc(NC(=O)c2ccc(N3CC4CC(C3)c3cccc(=O)n3C4)c(NC(=O)c3ccncc3)c2)cc(OC)c1OC (centres undefined) | 6.05 |  |  |
| CN1CCN(S(=O)(=O)c2ccc(NC(=O)C(C)(C)C)cc2)CC1 |  |  | 6.51 µM [falling, single point] |
| COc1cc(C(=O)NC2CCCCC2)ccc1OC1CCN(C(C)=O)CC1 | 9.49 | 29.1 µM [falling, single point] | 0.00411 µM [rising, full curve, poor fit] |
| Cc1ccc(C(=O)Nc2ccccc2N2CCOCC2)cc1S(=O)(=O)N1CCOCC1 | 15.5 | 0.0146 µM [rising, full curve, poor fit] | 0.00411 µM [rising, full curve, poor fit] |
| O=C(CSc1nnc(-c2cccs2)o1)c1cccs1 | -9.87 | 7.31 µM [falling, partial curve, poor fit] |  |
| O=C(c1cccs1)N1CCCC(c2nc3c(nnn3Cc3ccccc3)c(=O)[nH]2)C1 (centres undefined) | -44 | 14.6 µM [falling, partial curve, poor fit] | 8.2 µM [falling, partial curve] |
| NC(=O)C1CCN(C(=O)COc2ccc3ccc(=O)oc3c2)CC1 | -15.1 | 0.164 µM [falling, full curve, poor fit] |  |
| CCn1c(=O)n(CC)c2cc(NC(=O)c3ccccc3Cl)ccc21 | -16.9 |  |  |
| O=C(COC(=O)CCSc1ccccc1)NCc1ccccc1 | 43.9 |  | 3.66 µM [rising, full curve] |
| O=C(Nc1ccccc1[N+](=O)[O-])C1C(c2ccccc2)=C1c1ccccc1 | -11.6 | 29.1 µM [falling, single point] |  |
| CC(=O)c1cn(CC(=O)Nc2ccccc2F)c2ccccc12 | 10.5 |  |  |
| CCCCOC(=O)c1ccc(NC(=O)Nc2ccc(OC)c(OC)c2)cc1 | -2.42 | 0.651 µM [rising, single point] | 0.92 µM [rising, full curve] |
| Cc1ccc(C(C)C)cc1S(=O)(=O)Nc1cccnc1 | -18.5 | 0.461 µM [falling, full curve, poor fit] |  |
| CSc1ncccc1C(=O)NNc1cc(Cl)ccc1Cl | -5.47 | 0.517 µM [falling, single point] | 0.00461 µM [falling, full curve, poor fit] |
| Cc1nn(C)cc1C(=O)Nc1cc(Oc2ccc(Cl)cc2)cc([N+](=O)[O-])c1 | -42.5 |  |  |
| CCOc1cc(/C=C(\C#N)C(=O)Nc2ccccc2C(=O)O)ccc1OC(=O)c1ccc(C)cc1 | 9.26 | 20.6 µM [rising, partial curve] |  |
| COc1ccc(/C=N/NC(=O)CSCc2ccc([N+](=O)[O-])cc2)cc1OC |  | 0.517 µM [rising, partial curve, poor fit] |  |
| CC1(OC(=O)C2CCCC2)C(=O)C=C2C=C(c3ccsc3)N(CCc3c[nH]c4ccccc34)C=C2C1=O (centres undefined) | -3.3 | 0.092 µM [falling, full curve, poor fit] |  |
| COc1cc(NC(=O)COC(=O)c2nc3nc(C)cc(C)n3n2)cc(OC)c1 | -27.7 | 29.1 µM [falling, single point] |  |

A section from the list above:

| SMILES | cell number change [%] | AC50 [1] | AC50 [2] |
| --- | --- | --- | --- |
| S=c1nc(-c2cc(Cl)ccc2Cl)[nH][nH]1 | 11.9 | 0.58 µM [falling, single point] |  |
| Cc1cc(C)cc(N(CC(=O)N2CCn3c2nc2ccccc23)S(=O)(=O)c2c(C)noc2C)c1 | 45.3 | 29.1 µM [rising, partial curve] | 29.1 µM [rising, single point] |
| Cc1cccc(Cn2nc(C(C)(C)C)cc2C(=O)N2CCOCC2)c1 | -5.56 |  |  |

A draw from above in order of length of the SMILES, low to high.

| SMILES | cell number change [%] | AC50 [1] | AC50 [2] |
| --- | --- | --- | --- |
| CSc1ncccc1C(=O)NNc1cc(Cl)ccc1Cl | -5.47 | 0.517 µM [falling, single point] | 0.00461 µM [falling, full curve, poor fit] |
| CCn1c(=O)n(CC)c2cc(NC(=O)c3ccccc3Cl)ccc21 | -16.9 |  |  |
| CN1CCN(S(=O)(=O)c2ccc(NC(=O)C(C)(C)C)cc2)CC1 |  |  | 6.51 µM [falling, single point] |

More entries.

| SMILES | cell number change [%] | AC50 [1] | AC50 [2] |
| --- | --- | --- | --- |
| COc1ccc(CC(=O)Nc2ccc(-c3cn4ccccc4n3)cc2)cc1OC | -35 | 25.9 µM [falling, single point] | 13 µM [falling, partial curve, poor fit] |
| CC1(C)CC(=O)C=C(C(=O)N2CCCC(C(=O)c3cccc(C(F)(F)F)c3)C2)O1 (centres undefined) |  | 6.51 µM [rising, single point] |  |
| O=C(CCC(=O)OCCCC(F)(F)C(F)(F)F)Nc1ccc(Cl)cc1Cl | -71.8 |  | 29.1 µM [falling, single point] |
| COc1ccc(C(=O)NCCS(=O)(=O)NCc2ccccc2)cc1 |  |  | 6.51 µM [rising, partial curve, poor fit] |
| CC(OC(=O)c1ccc2ncsc2c1)C(=O)Nc1cccc(Cl)c1 (centres undefined) | 23.1 | 16.4 µM [rising, partial curve, poor fit] |  |
| C=CCNc1cc(N2CCCC2)ccc1[N+](=O)[O-] | 24.3 |  | 0.058 µM [rising, full curve, poor fit] |
| CCN(CC(=O)Nc1cc(Cl)ccc1C)C(=O)CCc1nc2ccccc2c(=O)[nH]1 | -7.02 | 6.51 µM [rising, partial curve, poor fit] |  |
| COc1ncnc2c1N=C1CC(C)(C)CC(N)=C1S2 | -127 |  | 20.6 µM [falling, partial curve] |
| COCCNC(=O)c1onc(CSc2cc(C)ccc2C)c1C(=O)O | 156 | 18.4 µM [rising, partial curve] | 16.4 µM [rising, partial curve] |
| O=c1[nH][nH]cc1C=NCc1cccnc1 | 3.64 | 1.84 µM [rising, partial curve] |  |
| Cn1ccc(C(=O)OCC(=O)Nc2ccccc2Cl)n1 | 23 | 14.6 µM [rising, single point] |  |
| CCOc1ccc(/C=N/NC(=O)C(O)c2ccccc2)c(O)c1 (centres undefined) | -12.9 |  |  |
| COC(=O)c1c(NC(=O)CN2CCN(c3ccccc3)CC2)c2c(C)cccc2n1C | 13.1 |  |  |
| CC(C)(C)OC(=O)N1CCC[C@H]1C(=O)Nc1ccc(S(=O)(=O)C(F)F)cc1 | -1.39 |  |  |
| Cc1cc(C)nc(/N=C(\N)Nc2ccc(SC(F)F)cc2)n1 | 11 | 14.6 µM [falling, single point] |  |
| COc1ccc(C(=O)N2CCN(c3ncccn3)CC2)cc1S(=O)(=O)N1CCOCC1 | -25 | 0.00461 µM [falling, full curve, poor fit] | 0.00461 µM [falling, full curve, poor fit] |
| CC(=O)c1ccc(N2CCN(C(=O)c3ccc(Br)cc3)CC2)c(F)c1 |  | 32.6 µM [rising, partial curve, poor fit] | 6.51 µM [falling, single point] |
| O=C(NCc1ccc(F)cc1)C1CCCN(C(=O)Nc2ccc(F)cc2)C1 (centres undefined) | 6.72 | 6.51 µM [rising, single point] |  |
| Cc1cccc(N2CCN(C(=O)CCCn3c(=S)[nH]c4cc5c(cc4c3=O)OCO5)CC2)c1C | -35.2 | 16.4 µM [falling, single point] | 32.6 µM [falling, single point] |
